Measurements taken from the supplement of paper PMC7238544.
Where a name gives a salt, the structure may show the parent alone. ± gives the standard deviation of the averaged measurements. Some of the results follow. The data scatter; read single values as rough.

Tests used:
[1] = test system: hAMSC donor 1; assay: Hoechst total cell count ratio vs vehicle control; higher = more cells (less toxicity)
[2] = test system: hAMSC donor 2; assay: as above
[3] = test system: hAMSC donor 1; assay: transgenic luciferase activity (RLU/mg protein) fold change vs vehicle control (ratio); higher = more transgene expression
[4] = test system: hAMSC donor 2; assay: as above
[5] = test system: hAMSC donor 1; assay: transfection efficiency (EGFP+ cells / Hoechst count) fold change vs vehicle control (ratio); hAMSC are human adipose-derived mesenchymal stem cells given an EGFP-luciferase plasmid by lipofection; higher = enhanced transfection
[6] = test system: hAMSC donor 2; assay: as above
[7] = priming compound concentration 0.2 µM
[8] = priming compound concentration 1.7 µM
[9] = priming compound concentration 13 µM

CCOC(=O)C1=C(C)NC(C)=C(C(=O)OCC)C1c1ccccc1/C=C/C(=O)OC(C)(C)C [Lacidipine]
Hoechst total cell count ratio [1, 7]: 1.59 ± 0.07
Hoechst total cell count ratio [1, 8]: 1.31 ± 0.13
Hoechst total cell count ratio [1, 9]: 1.2 ± 0.078
Hoechst total cell count ratio [2, 7]: 1.02 ± 0.082
Hoechst total cell count ratio [2, 8]: 1 ± 0.021
Hoechst total cell count ratio [2, 9]: 1.07 ± 0.067
transgenic luciferase activity [3, 8]: 0.934 ± 0.066
transgenic luciferase activity [3, 9]: 0.174 ± 0.08
transgenic luciferase activity [4, 7]: 0.474 ± 0.11
transgenic luciferase activity [4, 8]: 0.858 ± 0.17
transgenic luciferase activity [4, 9]: 0.635 ± 0.23
transfection efficiency [5, 7]: 1 ± 0.076
transfection efficiency [5, 8]: 1.42 ± 0.17
transfection efficiency [5, 9]: 1.16 ± 0.34
transfection efficiency [6, 7]: 0.988 ± 0.14
transfection efficiency [6, 8]: 1.312 ± 0.013
transfection efficiency [6, 9]: 0.885 ± 0.15

Oc1c(Cl)cc(Cl)c2cccnc12 [Chloroxine]
Hoechst total cell count ratio [1, 7]: 1.08 ± 0.18
Hoechst total cell count ratio [1, 8]: 1.11 ± 0.049
Hoechst total cell count ratio [1, 9]: 0.664 ± 0.053
Hoechst total cell count ratio [2, 7]: 0.996 ± 0.029
Hoechst total cell count ratio [2, 8]: 1.146 ± 0.0089
Hoechst total cell count ratio [2, 9]: 1.08 ± 0.16
transgenic luciferase activity [3, 7]: 0.876 ± 0.38
transgenic luciferase activity [3, 8]: 0.988 ± 0.071
transgenic luciferase activity [4, 7]: 0.849 ± 0.2
transgenic luciferase activity [4, 8]: 1.02 ± 0.12
transgenic luciferase activity [4, 9]: 0.519 ± 0.2
transfection efficiency [5, 7]: 1.18 ± 0.69
transfection efficiency [5, 8]: 1.06 ± 0.22
transfection efficiency [5, 9]: 1.06 ± 1.1
transfection efficiency [6, 7]: 1.11 ± 0.12
transfection efficiency [6, 8]: 1 ± 0.18
transfection efficiency [6, 9]: 1.1 ± 0.091

Cc1cc2c(s1)Nc1ccccc1N=C2N1CCN(C)CC1 [Olanzapine]
Hoechst total cell count ratio [1, 7]: 1.33 ± 0.19
Hoechst total cell count ratio [1, 8]: 1.27 ± 0.098
Hoechst total cell count ratio [1, 9]: 1.35 ± 0.18
Hoechst total cell count ratio [2, 7]: 0.956 ± 0.27
Hoechst total cell count ratio [2, 8]: 1.04 ± 0.21
Hoechst total cell count ratio [2, 9]: 1.04 ± 0.11
transgenic luciferase activity [3, 8]: 1.48 ± 0.65
transgenic luciferase activity [3, 9]: 0.594 ± 0.45
transgenic luciferase activity [4, 7]: 0.765 ± 0.53
transgenic luciferase activity [4, 8]: 1.01 ± 0.044
transgenic luciferase activity [4, 9]: 0.803 ± 0.14
transfection efficiency [5, 7]: 1.07 ± 0.071
transfection efficiency [5, 8]: 1.34 ± 0.13
transfection efficiency [5, 9]: 1.26 ± 0.19
transfection efficiency [6, 7]: 0.986 ± 0.47
transfection efficiency [6, 8]: 1.14 ± 0.15
transfection efficiency [6, 9]: 1.03 ± 0.27

Cc1ccc(S(=O)(=O)NC(=O)NN2CCCCCC2)cc1 [Tolazamide]
Hoechst total cell count ratio [1, 7]: 1.41 ± 0.14
Hoechst total cell count ratio [1, 8]: 1.49 ± 0.046
Hoechst total cell count ratio [1, 9]: 1.32 ± 0.058
Hoechst total cell count ratio [2, 7]: 1.17 ± 0.086
Hoechst total cell count ratio [2, 8]: 1.03 ± 0.044
Hoechst total cell count ratio [2, 9]: 1.09 ± 0.24
transgenic luciferase activity [3, 8]: 0.955 ± 0.34
transgenic luciferase activity [3, 9]: 0.479 ± 0.19
transgenic luciferase activity [4, 7]: 0.391 ± 0.45
transgenic luciferase activity [4, 8]: 1.02 ± 0.099
transgenic luciferase activity [4, 9]: 0.948 ± 0.1
transfection efficiency [5, 7]: 1.18 ± 0.14
transfection efficiency [5, 8]: 0.852 ± 0.27
transfection efficiency [5, 9]: 1.22 ± 0.26
transfection efficiency [6, 7]: 0.758 ± 0.071
transfection efficiency [6, 8]: 1.17 ± 0.27
transfection efficiency [6, 9]: 1.14 ± 0.26

O=C1Cc2cc(CCN3CCN(c4nsc5ccccc45)CC3)c(Cl)cc2N1 [Ziprasidone]
Hoechst total cell count ratio [1, 7]: 1.32 ± 0.096
Hoechst total cell count ratio [1, 8]: 1.21 ± 0.11
Hoechst total cell count ratio [1, 9]: 1.51 ± 0.31
Hoechst total cell count ratio [2, 7]: 1.17 ± 0.16
Hoechst total cell count ratio [2, 8]: 1.14 ± 0.11
Hoechst total cell count ratio [2, 9]: 1.4 ± 0.18
transgenic luciferase activity [3, 8]: 0.296 ± 0.042
transgenic luciferase activity [3, 9]: 0.792 ± 0.26
transgenic luciferase activity [4, 7]: 1.14 ± 0.51
transgenic luciferase activity [4, 8]: 0.788 ± 0.069
transgenic luciferase activity [4, 9]: 0.562 ± 0.19
transfection efficiency [5, 7]: 1.15 ± 0.28
transfection efficiency [5, 8]: 0.924 ± 0.32
transfection efficiency [5, 9]: 0.744 ± 0.19
transfection efficiency [6, 7]: 1.1 ± 0.12
transfection efficiency [6, 8]: 1.06 ± 0.1
transfection efficiency [6, 9]: 0.478 ± 0.056

COC(=O)C1=C(C)NC(C)=C(C(=O)OCCN(C)Cc2ccccc2)C1c1cccc([N+](=O)[O-])c1 (configuration not stated) [Nicardipine hydrochloride]
Hoechst total cell count ratio [1, 7]: 1.08 ± 0.15
Hoechst total cell count ratio [1, 8]: 0.934 ± 0.082
Hoechst total cell count ratio [1, 9]: 1.27 ± 0.32
Hoechst total cell count ratio [2, 7]: 1.05 ± 0.083
Hoechst total cell count ratio [2, 8]: 1.16 ± 0.042
Hoechst total cell count ratio [2, 9]: 1.02 ± 0.028
transgenic luciferase activity [3, 8]: 1.34 ± 0.39
transgenic luciferase activity [3, 9]: 0.391 ± 0.1
transgenic luciferase activity [4, 7]: 0.807 ± 0.076
transgenic luciferase activity [4, 8]: 0.484 ± 0.045
transgenic luciferase activity [4, 9]: 0.62 ± 0.084
transfection efficiency [5, 7]: 1.01 ± 0.19
transfection efficiency [5, 8]: 1.69 ± 0.69
transfection efficiency [5, 9]: 0.96 ± 0.29
transfection efficiency [6, 7]: 1.11 ± 0.1
transfection efficiency [6, 8]: 1.02 ± 0.024
transfection efficiency [6, 9]: 1.21 ± 0.15
